The values below come from article PMC9429577.

The chains behind the UniProt entries cited, without tags or fusion partners. Where a name states a change or a piece, a line headed by the entry shows the natural chain unless it says otherwise.
UniProt Q9GK11: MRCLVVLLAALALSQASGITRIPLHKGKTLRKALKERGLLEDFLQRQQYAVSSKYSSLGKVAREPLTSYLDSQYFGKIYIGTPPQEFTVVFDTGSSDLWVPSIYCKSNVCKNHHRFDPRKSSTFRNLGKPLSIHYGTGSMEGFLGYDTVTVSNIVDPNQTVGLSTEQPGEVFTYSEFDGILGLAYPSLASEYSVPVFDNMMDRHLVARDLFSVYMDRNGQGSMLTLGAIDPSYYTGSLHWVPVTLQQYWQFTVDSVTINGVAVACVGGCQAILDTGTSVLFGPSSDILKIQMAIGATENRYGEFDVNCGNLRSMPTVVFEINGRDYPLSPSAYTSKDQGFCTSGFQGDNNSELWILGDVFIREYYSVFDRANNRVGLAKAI
UniProt C4R3X8: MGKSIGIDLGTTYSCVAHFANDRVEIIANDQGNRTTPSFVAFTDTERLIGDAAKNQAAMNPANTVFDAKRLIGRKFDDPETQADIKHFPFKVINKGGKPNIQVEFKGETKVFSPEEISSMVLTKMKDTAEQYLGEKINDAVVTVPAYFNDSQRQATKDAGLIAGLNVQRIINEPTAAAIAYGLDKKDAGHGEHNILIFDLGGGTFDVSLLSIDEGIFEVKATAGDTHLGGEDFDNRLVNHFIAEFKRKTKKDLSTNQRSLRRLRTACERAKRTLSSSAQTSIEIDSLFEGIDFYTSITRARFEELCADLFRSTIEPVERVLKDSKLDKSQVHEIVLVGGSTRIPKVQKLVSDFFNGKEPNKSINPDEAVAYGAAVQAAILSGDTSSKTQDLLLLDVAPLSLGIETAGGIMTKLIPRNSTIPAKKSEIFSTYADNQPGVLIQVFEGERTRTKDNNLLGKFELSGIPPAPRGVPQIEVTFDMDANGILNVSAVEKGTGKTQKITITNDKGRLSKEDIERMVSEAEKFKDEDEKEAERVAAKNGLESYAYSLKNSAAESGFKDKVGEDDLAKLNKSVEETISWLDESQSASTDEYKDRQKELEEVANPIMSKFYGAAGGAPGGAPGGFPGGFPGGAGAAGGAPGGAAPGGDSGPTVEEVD
UniProt C4R887: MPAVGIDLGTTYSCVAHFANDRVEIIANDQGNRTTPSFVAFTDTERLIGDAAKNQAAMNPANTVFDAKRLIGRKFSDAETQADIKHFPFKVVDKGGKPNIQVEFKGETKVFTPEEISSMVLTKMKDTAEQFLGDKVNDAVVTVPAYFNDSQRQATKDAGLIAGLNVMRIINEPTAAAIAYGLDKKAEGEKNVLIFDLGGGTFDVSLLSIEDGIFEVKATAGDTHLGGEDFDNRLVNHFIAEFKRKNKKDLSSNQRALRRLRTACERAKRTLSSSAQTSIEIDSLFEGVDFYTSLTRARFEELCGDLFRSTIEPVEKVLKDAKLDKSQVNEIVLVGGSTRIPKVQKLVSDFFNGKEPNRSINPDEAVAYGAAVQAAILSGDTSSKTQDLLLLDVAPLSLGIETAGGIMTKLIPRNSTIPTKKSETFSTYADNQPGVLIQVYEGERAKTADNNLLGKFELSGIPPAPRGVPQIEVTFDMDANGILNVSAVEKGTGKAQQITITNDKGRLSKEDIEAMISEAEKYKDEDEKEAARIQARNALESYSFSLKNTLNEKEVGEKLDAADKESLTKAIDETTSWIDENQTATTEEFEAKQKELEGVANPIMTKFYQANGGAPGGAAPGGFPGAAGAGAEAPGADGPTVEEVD
UniProt C4R5E4: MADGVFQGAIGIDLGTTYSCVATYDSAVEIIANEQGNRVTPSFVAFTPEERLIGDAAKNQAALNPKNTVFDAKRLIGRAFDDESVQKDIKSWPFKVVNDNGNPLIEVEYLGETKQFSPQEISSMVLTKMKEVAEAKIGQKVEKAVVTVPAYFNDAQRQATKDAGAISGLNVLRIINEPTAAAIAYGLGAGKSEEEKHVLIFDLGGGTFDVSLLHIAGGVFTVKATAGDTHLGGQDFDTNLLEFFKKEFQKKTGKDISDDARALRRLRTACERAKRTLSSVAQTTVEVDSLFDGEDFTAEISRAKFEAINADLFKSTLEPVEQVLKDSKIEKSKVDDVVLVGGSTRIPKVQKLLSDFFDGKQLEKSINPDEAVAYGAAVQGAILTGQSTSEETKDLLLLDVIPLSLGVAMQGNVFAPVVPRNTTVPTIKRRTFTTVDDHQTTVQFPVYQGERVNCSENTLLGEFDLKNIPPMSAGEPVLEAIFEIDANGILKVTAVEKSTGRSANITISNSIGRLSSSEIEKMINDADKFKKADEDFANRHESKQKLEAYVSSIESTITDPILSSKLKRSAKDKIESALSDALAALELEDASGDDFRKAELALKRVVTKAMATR

Results are given in words; binding and its absence hold for the method and conditions named. Binding seen in cells or lysates may run through a third protein. A yes stands for co-enrichment or nearness to the bait. Other partners may have been found.

The test has as its target wild camel prochymosin (chy) (camel) (UniProt Q9GK11). Put plainly: affinity purification with mass spectrometry; lysates of chy-GS115 and chy34-GS115 cells after 24 h of methanol induction; rabbit anti-prochymosin polyclonal antibody on agarose beads (Immunoprecipitation Kit, Sangon); trypsin digest, three biological repetitions mixed, label-free LC-MS/MS, spectra searched against UniProt; differential interacting proteins at fold change >= 1.5.

As to “Hsp70 (Gene symbol: PAS_chr3_0230) (from UniProt C4R3X8)”, the binding result was “binds”.

In the case of “Hsp70 (Gene symbol: PAS_chr4_0552) (from UniProt C4R887)”, the binding result is listed as “binds”.

For “Hsp90 (Gene symbol: PAS_chr1-4_0130) (from UniProt C4QXI5)”, the binding entry is given as “binds”.

Turning to “Hsp70 (Gene symbol: PAS_chr3_0731) (from UniProt C4R5E4)”, the binding result is listed as “binds”.
